Reference: PubChem BioAssay AID485314 (National Center for Advancing Translational Sciences (NCATS), 2010)
Out of some 340,000 compounds screened, about 4,500 (1.3%) were called active. The inconclusive results got no clear call from the source; some entries with a clear call stand among them for comparison. Calls come from the whole dose curve; as a rule, active = well fitted inhibition curve with a large enough effect; inconclusive = small, poorly fitted or top-dose-only effect, or another doubt; inactive = no such curve, though single readings can be large or run the other way. Potencies beside an inconclusive call are fits to weak or partial responses and may not hold up.

Molecular target: DNA polymerase beta (Homo sapiens) (UniProt P06746)
Test: qHTS Assay for Inhibitors of DNA Polymerase Beta
Conditions: Pol beta primer extension/strand displacement, fluorescence kinetic; activity change, negative = inhibition: at 114 µM (top of the series)
Outline: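 Kinetic readout of DNA synthesis with strand displacement by Pol beta. Compound and 10 nM enzyme sit 15 min at room temperature; 50 nM substrate starts the reaction, read immediately and at 10 min.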
% is set by controls: 0 for no effect and ±100 for the full control effect; potency is the fitted concentration of half-maximal effect.

SMILES	Potency	activity change, negative = inhibition
C=CCn1c(NCc2c[nH]c3ccccc23)nc2ccccc21	inconclusive: 25.1 µM [inhibitor, partial curve]	–
CC(Oc1ccc(F)cc1)C(=O)Nc1cc(-c2ccc(F)c(F)c2)no1 (stereo unspecified)	–	inactive: -24.1%
NC(=O)c1ccc(NC(=O)CSc2nnc(-c3cccnc3)n2Cc2ccco2)cc1	–	inconclusive: -52% [inhibitor]
N#CC1=C2SCN(c3ccccc3)CN2C(=O)CC1c1cccs1 (stereo unspecified)	inconclusive: 35.5 µM [inhibitor, full curve]	–
COc1ccc(C(=O)N(Cc2ccccc2)c2cccc(C)c2)cc1	–	inconclusive: -74.6% [inhibitor]
O=C(O)c1c(-c2ccccc2)oc2ccc(OCc3ccc(Cl)c(Cl)c3)cc12	–	inconclusive: -98.8% [inhibitor]
COc1ccc(-n2nc(C(=O)NCC(=O)N3CCN(Cc4ccccc4)CC3)c3ccccc3c2=O)c(OC)c1	–	inactive: 10.4%
CCn1cc(C(=O)O)c(=O)c2cc(F)c(N3CCN(C(=S)NC(=O)c4ccccc4Br)CC3)cc21	inconclusive: 79.4 µM [inhibitor, single point]	–
NC(=O)c1cc2cc([N+](=O)[O-])ccc2oc1=O	inconclusive: 0.891 µM [inhibitor, full curve, poor fit]	–
Cc1nnc(NNS(=O)(=O)c2ccc(Cl)cc2)[nH]c1=O	inconclusive: 63.1 µM [inhibitor, single point]	–
CN(C)/C=C/C(=O)c1ccc2noc(-c3ccccc3)c2c1	inconclusive: 14.1 µM [inhibitor, full curve, poor fit]	–
Cc1occc1C(=O)NCCc1ccc(Cl)cc1	–	inactive: 5.54%
Nc1cccc2c1C(=O)N(Cc1nnc(-c3ccccc3Br)o1)C2=O	–	inconclusive: -30.3% [inhibitor]
C[C@H](Cc1ccccc1)Nc1ncnc2c1ncn2[C@@H]1O[C@H](CO)[C@H](O)[C@H]1O	–	inactive: 18.1% [at 57.1 µM]
CCOC(=O)C(C)Sc1ncc(OC)c(=O)[nH]1 (stereo unspecified)	inconclusive: 89.1 µM [inhibitor, single point]	–
Cc1nn(Cc2ccccc2)c(C)c1NC(=O)CSc1nnc(-c2cc(Cl)ccc2O)n1C	inconclusive: 56.2 µM [inhibitor, partial curve]	–
Cc1ccccc1CC1C(=O)Nc2ccc(Br)cc21 (stereo unspecified)	inconclusive: 0.1 µM [inhibitor, full curve, poor fit]	–
CCc1ccc(CNCc2c(C(=O)O)c(C)n(Cc3c(F)cccc3Cl)c2C)cc1	–	inactive: 10.2%
O=[N+]([O-])c1cc(Br)cc(C=Nc2ccc3c(c2)OCO3)c1O	active: 25.1 µM	–
CS(=O)(=O)N(CC(=O)Nc1ccc(Br)cc1)c1ccccc1Br	–	inactive: 4.85%
COc1ccc(CCNC(=O)c2nnn(CC(=O)Nc3cccc(F)c3)c2N)cc1OC	inconclusive: 22.4 µM [inhibitor, full curve]	–
Cc1ccc(C(=O)N2CCC3(CC2)NCCc2[nH]cnc23)cc1	inconclusive: 0.158 µM [inhibitor, full curve, poor fit]	–
CC(=O)c1sc(C(=O)O)c(-c2ccco2)c1-c1ccco1	active: 20 µM	–
Cc1c(Cl)cccc1NC(=O)Cn1nnc(C(=O)NCc2cccs2)c1N	inconclusive: 25.1 µM [inhibitor, single point]	–

SMILES	Potency	activity change, negative = inhibition
C=Cc1ccc(Cn2nc(-c3ccccc3)ccc2=O)cc1	inconclusive: 2.82 µM [inhibitor, partial curve]	–
Cc1ccc2c(c1)S/C(=C/c1ccc[n+](C)c1)N2CCO	inconclusive: 50.1 µM [inhibitor, partial curve]	–
COc1ccc(S(=O)(=O)Nc2ccc3oc4c(c3c2)C(=O)CC(C)(C)C4)cc1	–	inactive: -16.7%
O=c1[nH]c2cc3c(cc2cc1CN(Cc1ccccc1)Cc1nnnn1Cc1ccco1)OCCO3	active: 31.6 µM	–
O=S(=O)(NCc1c(Cl)cccc1Oc1ccccc1)c1ccccc1	inconclusive: 10 µM [inhibitor, partial curve]	–
CCOc1cc(/C=C2/NC(=O)NC2=O)cc(Br)c1OCc1ccc(C(=O)O)cc1	active: 25.1 µM	–
NNC(=O)c1oc2nc(-c3cccs3)cc(-c3ccco3)c2c1N	inconclusive: 56.2 µM [inhibitor, partial curve, poor fit]	–
O=C(NCc1ccccn1)c1coc(=O)c(Br)c1	inconclusive: 89.1 µM [inhibitor, single point]	–
CC(=O)N(C)c1ccc(OCC(O)COc2ccc(N(C)C(C)=O)cc2)cc1	inconclusive: 89.1 µM [inhibitor, single point]	–
CC1=C(C(=O)Nc2cccnc2)C(c2ccccc2)n2nc(SCc3ccccc3Cl)nc2N1 (stereo unspecified)	–	inactive: 34.5%
Cc1cccc(NC(=O)CSCC(=O)NCc2ccco2)c1	inconclusive: 28.2 µM [inhibitor, full curve, poor fit]	–
CCOCCCNC(=O)c1ccc(Cn2c(=O)[nH]c3ccsc3c2=O)cc1	inconclusive: 89.1 µM [inhibitor, single point]	–
COc1ccc(CCN2C(=O)CC(C(N)=O)SC2=Nc2ccc(F)cc2)cc1OC (stereo unspecified)	inconclusive: 89.1 µM [inhibitor, single point]	–
COc1ccc(S(=O)(=O)N2CCN(c3ccc(Cl)c(Cl)c3)CC2)c2ccccc12	–	inactive: -12.1%
O=C(CSc1ncc(C(F)(F)F)cc1Cl)N1CCN(S(=O)(=O)c2ccc(Cl)cc2)CC1	inconclusive: 31.6 µM [inhibitor, partial curve]	–
Cc1cc(N)c2cc(NC(=O)/C=C/c3ccccc3Cl)ccc2n1	active: 50.1 µM	–
CCOC(=O)c1cc2c(ccn2-c2ccc(F)cc2)n1CC(=O)NC(C)(C)C	inconclusive: 15.8 µM [inhibitor, partial curve]	–
COc1ccc(/C=C\C(=O)NCc2ccc3[nH]c(C)cc3c2)cc1OC	inconclusive: 70.8 µM [inhibitor, partial curve]	–
COc1cc(OC)c(NC(=O)N2CCOCC2)cc1Cl	inconclusive: 89.1 µM [inhibitor, single point]	–
CCN1CCc2nc3sc(C(=O)c4ccccc4)c(N)c3cc2C1	–	inactive: 10%
Cc1cccc(C)c1NC(=O)/C(C#N)=C/c1ccc(-c2ccc(C(=O)O)cc2)o1	inconclusive: 35.5 µM [inhibitor, partial curve]	–
Cc1ccc(-c2nc(-c3cc4cccc(OCc5ccc(F)cc5)c4oc3=O)no2)cc1	inconclusive: 8.91 µM [inhibitor, full curve, poor fit]	–
COc1cccc2c(N/N=C/c3ccc(O)c(O)c3)cc(C)nc12	active: 20 µM	–
Cc1ccc(NC(=O)CSc2nc(-c3ccc(C(C)(C)C)cc3)nc3cc(=O)[nH]n23)cc1C	inconclusive: 22.4 µM [inhibitor, full curve]	–

SMILES	Potency	activity change, negative = inhibition
CSc1ncc(C(=O)Nc2cccc(C)c2C)c(-c2ccccc2)n1	–	inactive: -1.44%
Cc1ccc2c(c1)nnn2C1CCN(C(=O)C23CC4CC(CC(C4)C2)C3)CC1	inconclusive: 39.8 µM [inhibitor, single point]	–
CC1C(=O)Nc2ccc(S(=O)(=O)NCc3ccc(N(C)C)cc3)cc2NC1=O (stereo unspecified)	–	inactive: -6.64%
Clc1ccc(SCc2nc3ccccc3[nH]2)cc1	inconclusive: 7.94 µM [inhibitor, full curve, poor fit]	–
O=C(Nc1ccc(-c2ccc3nncn3n2)cc1)c1ccc(Br)o1	inconclusive: 5.62 µM [inhibitor, full curve]	–
CC1(C)OC1COc1c2ccoc2cc2oc(=O)ccc12 (stereo unspecified)	inconclusive: 1 µM [inhibitor, full curve]	–
Cc1ccc(Cl)cc1-n1ncc2c(NCc3ccc(F)cc3)ncnc21	inconclusive: 28.2 µM [inhibitor, partial curve, poor fit]	–
Cc1cc(N/N=C/c2ccccc2O)c2ccccc2n1	inconclusive: 25.1 µM [inhibitor, partial curve]	–
COc1cccc(C(=O)c2cn(CC(=O)Nc3cccc(C(F)(F)F)c3)c3nc(C)ccc3c2=O)c1	–	inactive: -10.1%
O=C(NC1CCCC1)C(c1ccccc1)N(Cc1ccc2c(c1)OCO2)C(=O)Cc1cccs1 (stereo unspecified)	inconclusive: 89.1 µM [inhibitor, single point]	–
O=C(COC(=O)C1(c2ccc(F)cc2)CCCC1)NCc1ccco1	active: 39.8 µM	–
COc1ccc2nc(NC(=O)CS(=O)(=O)c3ccc(C)cc3)sc2c1	–	inactive: 20.5%
COc1ccc(/C=C(\C#N)c2nc3ccccc3[nH]2)cc1O	active: 25.1 µM	–
CCOc1ccc(CCNC(=O)Cn2c(=O)c3cccn3c3ccc(F)cc32)cc1OCC	–	inactive: 39.1%
O=C(CSc1nc2nc(-c3cccs3)cc(C(F)(F)F)c2c(=O)[nH]1)Nc1ccc(F)c(F)c1	active: 28.2 µM	–
O=C(CS(=O)c1ccc(C(F)(F)F)cc1[N+](=O)[O-])Oc1ccccc1 (stereo unspecified)	–	inactive: -14.6%
O=C(N/N=C\C=C\c1ccco1)c1cncc(Br)c1	–	inconclusive: -109% [inhibitor]
CCOc1ccc(CCN2C(=O)c3ccc(C(=O)O)cc3C2=O)cc1OCC	–	inactive: 1.22%
CCS(=O)(=O)N1CC(=O)N(c2cc(C)ccc2C)C(C)(C(=O)NC2CCCCC2)C1 (stereo unspecified)	inconclusive: 89.1 µM [inhibitor, single point]	–
CCn1c(SCC(=O)N2c3ccccc3Sc3ccccc32)nnc1-c1ccco1	active: 44.7 µM	–
Oc1ccc(/C=N/N2CCN(C3c4ccccc4-c4ccccc43)CC2)cc1O	–	inactive: 5.11%
COc1ccc(CC(=O)Nc2ccc(NC(=O)c3ccccc3F)cc2)cc1	inconclusive: 70.8 µM [inhibitor, partial curve, poor fit]	–
COc1ccc(-n2nnc(-c3nsc(NC(=O)c4cccs4)n3)c2C)cc1OC	–	inactive: -6.33%

Full records, quoted from the list. Values in the order: Potency | activity change, negative = inhibition
O=C(Nc1ccc(-c2ccc3nncn3n2)cc1)c1ccc(Br)o1 is entered as inconclusive: 5.62 µM [inhibitor, full curve] | –
CC1(C)OC1COc1c2ccoc2cc2oc(=O)ccc12 (stereo unspecified) is entered as inconclusive: 1 µM [inhibitor, full curve] | –
CCS(=O)(=O)N1CC(=O)N(c2cc(C)ccc2C)C(C)(C(=O)NC2CCCCC2)C1 (stereo unspecified) is entered as inconclusive: 89.1 µM [inhibitor, single point] | –
